Data: article PMC8274477
These are yes or no findings as the source states them, for the method shown. Some binding calls cover weakened binding; strength is not graded here.

Chains of the proteins cited; added tags and fusions are not shown. Residues count along the entry.
UniProt P26378: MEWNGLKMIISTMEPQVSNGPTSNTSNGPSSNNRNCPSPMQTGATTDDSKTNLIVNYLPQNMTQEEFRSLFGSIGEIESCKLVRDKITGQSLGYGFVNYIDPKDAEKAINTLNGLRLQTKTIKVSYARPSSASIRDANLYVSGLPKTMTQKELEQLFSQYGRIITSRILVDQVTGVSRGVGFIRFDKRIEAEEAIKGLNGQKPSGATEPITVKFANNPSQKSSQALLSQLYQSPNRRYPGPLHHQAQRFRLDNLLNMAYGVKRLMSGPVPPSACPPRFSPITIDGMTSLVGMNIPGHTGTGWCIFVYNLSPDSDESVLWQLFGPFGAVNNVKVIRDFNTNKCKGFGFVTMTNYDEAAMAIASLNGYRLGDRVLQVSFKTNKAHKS
UniProt Q9H1K1, residues 35-167: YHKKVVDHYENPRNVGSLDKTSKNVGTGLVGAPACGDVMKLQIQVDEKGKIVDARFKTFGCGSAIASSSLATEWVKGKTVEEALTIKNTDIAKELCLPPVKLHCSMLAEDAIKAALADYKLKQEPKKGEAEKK
UniProt P02686: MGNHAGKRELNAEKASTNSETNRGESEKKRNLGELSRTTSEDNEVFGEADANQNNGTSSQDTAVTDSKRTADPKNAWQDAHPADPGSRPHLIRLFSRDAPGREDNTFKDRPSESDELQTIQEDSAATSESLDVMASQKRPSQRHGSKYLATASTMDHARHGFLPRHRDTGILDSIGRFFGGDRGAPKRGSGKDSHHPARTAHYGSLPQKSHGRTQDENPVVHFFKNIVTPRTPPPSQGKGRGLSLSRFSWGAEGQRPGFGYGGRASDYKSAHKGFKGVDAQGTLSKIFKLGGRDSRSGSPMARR

Legend:
Experiment in all cases: peptide or protein array; HuProt human proteome microarray; 5 ug/5 ml biotin-labelled LUBAC or OTULIN in solution, 1 h at room temperature; Cy5-streptavidin, scanned at 635 nm; BSA as negative control; hits: Z-score >= 3 and I_(Mean_Ratio) >= 1.4; both purified
[1] = molecular target: T1, ANGPTL2 (human) (UniProt Q9UKU9)
T1 sequence: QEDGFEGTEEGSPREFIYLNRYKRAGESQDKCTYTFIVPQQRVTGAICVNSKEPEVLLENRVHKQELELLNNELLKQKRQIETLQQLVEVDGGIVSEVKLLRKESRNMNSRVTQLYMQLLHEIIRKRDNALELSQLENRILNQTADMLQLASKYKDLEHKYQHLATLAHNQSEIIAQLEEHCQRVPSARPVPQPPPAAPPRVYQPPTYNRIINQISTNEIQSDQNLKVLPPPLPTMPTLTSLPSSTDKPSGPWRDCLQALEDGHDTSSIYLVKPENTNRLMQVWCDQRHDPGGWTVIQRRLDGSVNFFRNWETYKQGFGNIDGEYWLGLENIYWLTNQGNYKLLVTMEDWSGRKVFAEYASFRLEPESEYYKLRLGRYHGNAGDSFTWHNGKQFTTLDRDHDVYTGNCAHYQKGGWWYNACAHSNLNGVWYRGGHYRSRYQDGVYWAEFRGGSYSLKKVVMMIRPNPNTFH

[2] = molecular target: ELAVL4 (human) (UniProt P26378)
[3] = molecular target: ISCU (human) (UniProt Q9H1K1)
[4] = molecular target: MBP (human) (UniProt P02686)
[5] = molecular target: T2, SKIL (human) (UniProt P12757)
T2 sequence: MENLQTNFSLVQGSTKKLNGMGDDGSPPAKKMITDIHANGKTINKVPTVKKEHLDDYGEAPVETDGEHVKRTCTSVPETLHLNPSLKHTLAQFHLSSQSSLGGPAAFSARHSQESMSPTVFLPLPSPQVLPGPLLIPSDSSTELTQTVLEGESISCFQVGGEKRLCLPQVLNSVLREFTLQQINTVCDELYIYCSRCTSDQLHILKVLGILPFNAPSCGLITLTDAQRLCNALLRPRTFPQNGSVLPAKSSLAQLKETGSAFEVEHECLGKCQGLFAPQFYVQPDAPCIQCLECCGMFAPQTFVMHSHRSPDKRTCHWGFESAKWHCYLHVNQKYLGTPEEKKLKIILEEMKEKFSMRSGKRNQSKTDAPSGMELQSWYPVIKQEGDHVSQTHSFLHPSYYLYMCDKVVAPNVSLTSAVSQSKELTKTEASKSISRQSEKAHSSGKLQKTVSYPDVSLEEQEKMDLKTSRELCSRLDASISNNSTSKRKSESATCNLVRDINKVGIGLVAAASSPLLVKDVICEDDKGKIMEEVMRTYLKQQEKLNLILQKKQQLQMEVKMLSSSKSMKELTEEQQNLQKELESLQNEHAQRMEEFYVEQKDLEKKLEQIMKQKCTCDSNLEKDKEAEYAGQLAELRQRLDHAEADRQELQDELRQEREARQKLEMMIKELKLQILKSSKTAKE

Measured: binding

OTULIN (OTU deubiquitinase with linear linkage specificity, FAM105B), His-tagged, biotin-labelled (from UniProt Q96BN8 1-352) (enzyme)
binds: all assays above

linear ubiquitin chain assembly complex (LUBAC), purified as HIS-tagged HOIP with the subunit HOIL-1, biotin-labelled (from UniProt Q96EP0 1-1072; Q9BYM8 1-510)
binds: all assays above
